# The supplement of paper PMC11732987, “Enantioselective OTUD7B fragment discovery through chemoproteomics screening and high-throughput optimisation” (Communications Chemistry, 2025)
# By UniProt entry, the sequences of proteins in these tests, tags left out. Where a name states a change or a piece, a line headed by the entry shows the natural chain unless it says otherwise. Residues count along the entry.
# UniProt Q15633, 142-171: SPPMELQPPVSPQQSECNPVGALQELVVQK
# UniProt Q9C0D5: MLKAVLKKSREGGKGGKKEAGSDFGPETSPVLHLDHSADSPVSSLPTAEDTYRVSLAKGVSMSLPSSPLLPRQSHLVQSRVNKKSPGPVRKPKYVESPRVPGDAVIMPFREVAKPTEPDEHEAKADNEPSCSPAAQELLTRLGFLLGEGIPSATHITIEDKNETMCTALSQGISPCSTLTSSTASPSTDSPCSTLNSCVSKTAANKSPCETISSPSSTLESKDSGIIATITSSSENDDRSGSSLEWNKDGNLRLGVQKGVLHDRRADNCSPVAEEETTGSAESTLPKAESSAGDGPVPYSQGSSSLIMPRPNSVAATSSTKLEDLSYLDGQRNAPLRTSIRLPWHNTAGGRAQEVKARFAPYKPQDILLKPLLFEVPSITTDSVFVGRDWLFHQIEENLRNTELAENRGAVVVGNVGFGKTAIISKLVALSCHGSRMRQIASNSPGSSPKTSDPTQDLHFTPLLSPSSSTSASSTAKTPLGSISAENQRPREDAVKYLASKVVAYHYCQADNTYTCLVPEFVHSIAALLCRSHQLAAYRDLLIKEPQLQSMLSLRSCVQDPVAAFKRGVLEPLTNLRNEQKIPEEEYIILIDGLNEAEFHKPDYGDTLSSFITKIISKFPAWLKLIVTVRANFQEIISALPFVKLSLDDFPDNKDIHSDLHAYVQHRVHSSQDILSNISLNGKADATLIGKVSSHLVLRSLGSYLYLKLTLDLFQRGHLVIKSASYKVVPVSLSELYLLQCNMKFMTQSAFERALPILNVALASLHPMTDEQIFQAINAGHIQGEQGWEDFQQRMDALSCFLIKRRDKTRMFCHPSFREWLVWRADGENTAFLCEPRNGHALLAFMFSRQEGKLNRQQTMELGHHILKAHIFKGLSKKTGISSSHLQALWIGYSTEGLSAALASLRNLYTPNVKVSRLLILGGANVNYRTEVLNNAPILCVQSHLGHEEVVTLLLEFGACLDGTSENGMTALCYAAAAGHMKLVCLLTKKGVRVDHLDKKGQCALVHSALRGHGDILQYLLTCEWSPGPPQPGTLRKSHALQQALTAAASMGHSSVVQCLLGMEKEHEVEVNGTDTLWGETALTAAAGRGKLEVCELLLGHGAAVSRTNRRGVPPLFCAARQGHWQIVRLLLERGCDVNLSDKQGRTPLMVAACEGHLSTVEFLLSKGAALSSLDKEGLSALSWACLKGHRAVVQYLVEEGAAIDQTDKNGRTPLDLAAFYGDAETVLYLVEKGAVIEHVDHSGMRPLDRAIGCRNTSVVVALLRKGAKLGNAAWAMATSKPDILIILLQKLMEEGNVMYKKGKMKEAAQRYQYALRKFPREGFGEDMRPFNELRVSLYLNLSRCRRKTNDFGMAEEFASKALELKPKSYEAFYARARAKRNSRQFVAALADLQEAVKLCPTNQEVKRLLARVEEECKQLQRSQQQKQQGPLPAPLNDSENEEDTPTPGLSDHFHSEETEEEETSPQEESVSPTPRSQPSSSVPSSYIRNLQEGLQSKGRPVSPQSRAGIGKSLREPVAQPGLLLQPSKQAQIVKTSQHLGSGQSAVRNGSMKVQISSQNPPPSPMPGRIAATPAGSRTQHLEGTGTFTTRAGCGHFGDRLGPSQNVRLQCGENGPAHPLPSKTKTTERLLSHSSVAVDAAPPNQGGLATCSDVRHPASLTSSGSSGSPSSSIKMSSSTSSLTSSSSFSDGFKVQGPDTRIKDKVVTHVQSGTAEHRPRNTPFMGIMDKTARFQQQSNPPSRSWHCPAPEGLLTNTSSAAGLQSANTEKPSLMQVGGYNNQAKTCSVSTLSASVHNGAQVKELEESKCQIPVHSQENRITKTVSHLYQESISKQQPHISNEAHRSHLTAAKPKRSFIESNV
# UniProt Q5VWN6: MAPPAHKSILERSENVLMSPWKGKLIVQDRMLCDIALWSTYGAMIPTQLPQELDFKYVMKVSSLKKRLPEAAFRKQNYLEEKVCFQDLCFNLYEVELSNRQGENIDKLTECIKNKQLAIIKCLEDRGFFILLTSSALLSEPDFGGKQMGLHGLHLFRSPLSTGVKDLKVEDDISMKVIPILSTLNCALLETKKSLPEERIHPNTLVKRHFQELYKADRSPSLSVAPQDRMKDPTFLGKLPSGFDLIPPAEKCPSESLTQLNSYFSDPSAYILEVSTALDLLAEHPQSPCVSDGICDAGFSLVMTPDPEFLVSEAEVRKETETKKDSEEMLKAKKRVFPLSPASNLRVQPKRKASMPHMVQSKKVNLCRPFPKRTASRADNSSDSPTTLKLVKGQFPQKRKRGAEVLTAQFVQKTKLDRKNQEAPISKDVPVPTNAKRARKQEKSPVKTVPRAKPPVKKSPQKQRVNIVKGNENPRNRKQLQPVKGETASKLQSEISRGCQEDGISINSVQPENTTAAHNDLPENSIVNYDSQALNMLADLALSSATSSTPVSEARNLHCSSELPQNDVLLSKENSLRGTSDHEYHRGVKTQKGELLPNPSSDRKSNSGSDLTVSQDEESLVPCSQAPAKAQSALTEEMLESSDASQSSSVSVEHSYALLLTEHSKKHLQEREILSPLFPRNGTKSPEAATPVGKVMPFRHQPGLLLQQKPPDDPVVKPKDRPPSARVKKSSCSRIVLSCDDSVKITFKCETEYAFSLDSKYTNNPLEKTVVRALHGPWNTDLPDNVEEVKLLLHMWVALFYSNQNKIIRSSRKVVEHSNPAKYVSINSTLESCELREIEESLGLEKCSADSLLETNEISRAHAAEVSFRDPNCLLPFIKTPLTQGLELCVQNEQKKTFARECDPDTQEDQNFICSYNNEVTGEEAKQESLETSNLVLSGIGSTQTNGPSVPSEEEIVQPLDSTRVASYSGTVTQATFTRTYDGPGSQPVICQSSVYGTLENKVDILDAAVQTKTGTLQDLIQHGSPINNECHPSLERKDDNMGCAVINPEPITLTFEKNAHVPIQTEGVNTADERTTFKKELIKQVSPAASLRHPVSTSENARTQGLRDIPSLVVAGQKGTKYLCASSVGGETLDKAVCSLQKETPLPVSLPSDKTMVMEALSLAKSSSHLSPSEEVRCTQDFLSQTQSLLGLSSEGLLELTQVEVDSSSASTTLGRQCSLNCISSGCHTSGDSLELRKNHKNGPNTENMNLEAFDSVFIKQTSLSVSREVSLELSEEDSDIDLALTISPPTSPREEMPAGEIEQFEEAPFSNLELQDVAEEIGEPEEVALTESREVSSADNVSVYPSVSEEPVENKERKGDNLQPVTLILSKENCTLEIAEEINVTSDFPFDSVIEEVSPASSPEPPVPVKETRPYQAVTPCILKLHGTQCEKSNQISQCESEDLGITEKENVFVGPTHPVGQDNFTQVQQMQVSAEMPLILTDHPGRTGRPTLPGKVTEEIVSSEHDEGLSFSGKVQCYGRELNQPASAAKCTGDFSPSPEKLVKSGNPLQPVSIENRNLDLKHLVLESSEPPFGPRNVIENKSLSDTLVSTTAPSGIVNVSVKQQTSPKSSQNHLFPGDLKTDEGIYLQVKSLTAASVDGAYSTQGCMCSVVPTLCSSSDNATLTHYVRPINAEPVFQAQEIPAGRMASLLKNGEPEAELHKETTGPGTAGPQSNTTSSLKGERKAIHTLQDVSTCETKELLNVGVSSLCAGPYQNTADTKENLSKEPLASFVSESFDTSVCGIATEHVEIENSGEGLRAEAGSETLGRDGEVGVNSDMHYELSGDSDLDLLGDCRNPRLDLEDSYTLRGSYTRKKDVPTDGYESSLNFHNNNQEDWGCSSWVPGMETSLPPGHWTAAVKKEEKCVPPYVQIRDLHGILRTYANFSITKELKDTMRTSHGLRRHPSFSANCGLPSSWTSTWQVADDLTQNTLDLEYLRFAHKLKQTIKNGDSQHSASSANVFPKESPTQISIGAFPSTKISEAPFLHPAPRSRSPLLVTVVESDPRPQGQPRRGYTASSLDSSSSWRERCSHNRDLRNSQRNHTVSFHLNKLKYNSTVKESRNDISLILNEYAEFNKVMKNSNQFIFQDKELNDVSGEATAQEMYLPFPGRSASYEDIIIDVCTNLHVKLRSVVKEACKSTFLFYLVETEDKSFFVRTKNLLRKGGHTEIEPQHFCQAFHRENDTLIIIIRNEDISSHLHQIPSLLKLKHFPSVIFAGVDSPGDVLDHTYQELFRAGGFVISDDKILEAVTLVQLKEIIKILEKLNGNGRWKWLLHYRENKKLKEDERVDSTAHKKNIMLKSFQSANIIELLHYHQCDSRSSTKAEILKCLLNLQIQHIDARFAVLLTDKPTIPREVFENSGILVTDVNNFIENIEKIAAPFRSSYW
# UniProt Q9UK61: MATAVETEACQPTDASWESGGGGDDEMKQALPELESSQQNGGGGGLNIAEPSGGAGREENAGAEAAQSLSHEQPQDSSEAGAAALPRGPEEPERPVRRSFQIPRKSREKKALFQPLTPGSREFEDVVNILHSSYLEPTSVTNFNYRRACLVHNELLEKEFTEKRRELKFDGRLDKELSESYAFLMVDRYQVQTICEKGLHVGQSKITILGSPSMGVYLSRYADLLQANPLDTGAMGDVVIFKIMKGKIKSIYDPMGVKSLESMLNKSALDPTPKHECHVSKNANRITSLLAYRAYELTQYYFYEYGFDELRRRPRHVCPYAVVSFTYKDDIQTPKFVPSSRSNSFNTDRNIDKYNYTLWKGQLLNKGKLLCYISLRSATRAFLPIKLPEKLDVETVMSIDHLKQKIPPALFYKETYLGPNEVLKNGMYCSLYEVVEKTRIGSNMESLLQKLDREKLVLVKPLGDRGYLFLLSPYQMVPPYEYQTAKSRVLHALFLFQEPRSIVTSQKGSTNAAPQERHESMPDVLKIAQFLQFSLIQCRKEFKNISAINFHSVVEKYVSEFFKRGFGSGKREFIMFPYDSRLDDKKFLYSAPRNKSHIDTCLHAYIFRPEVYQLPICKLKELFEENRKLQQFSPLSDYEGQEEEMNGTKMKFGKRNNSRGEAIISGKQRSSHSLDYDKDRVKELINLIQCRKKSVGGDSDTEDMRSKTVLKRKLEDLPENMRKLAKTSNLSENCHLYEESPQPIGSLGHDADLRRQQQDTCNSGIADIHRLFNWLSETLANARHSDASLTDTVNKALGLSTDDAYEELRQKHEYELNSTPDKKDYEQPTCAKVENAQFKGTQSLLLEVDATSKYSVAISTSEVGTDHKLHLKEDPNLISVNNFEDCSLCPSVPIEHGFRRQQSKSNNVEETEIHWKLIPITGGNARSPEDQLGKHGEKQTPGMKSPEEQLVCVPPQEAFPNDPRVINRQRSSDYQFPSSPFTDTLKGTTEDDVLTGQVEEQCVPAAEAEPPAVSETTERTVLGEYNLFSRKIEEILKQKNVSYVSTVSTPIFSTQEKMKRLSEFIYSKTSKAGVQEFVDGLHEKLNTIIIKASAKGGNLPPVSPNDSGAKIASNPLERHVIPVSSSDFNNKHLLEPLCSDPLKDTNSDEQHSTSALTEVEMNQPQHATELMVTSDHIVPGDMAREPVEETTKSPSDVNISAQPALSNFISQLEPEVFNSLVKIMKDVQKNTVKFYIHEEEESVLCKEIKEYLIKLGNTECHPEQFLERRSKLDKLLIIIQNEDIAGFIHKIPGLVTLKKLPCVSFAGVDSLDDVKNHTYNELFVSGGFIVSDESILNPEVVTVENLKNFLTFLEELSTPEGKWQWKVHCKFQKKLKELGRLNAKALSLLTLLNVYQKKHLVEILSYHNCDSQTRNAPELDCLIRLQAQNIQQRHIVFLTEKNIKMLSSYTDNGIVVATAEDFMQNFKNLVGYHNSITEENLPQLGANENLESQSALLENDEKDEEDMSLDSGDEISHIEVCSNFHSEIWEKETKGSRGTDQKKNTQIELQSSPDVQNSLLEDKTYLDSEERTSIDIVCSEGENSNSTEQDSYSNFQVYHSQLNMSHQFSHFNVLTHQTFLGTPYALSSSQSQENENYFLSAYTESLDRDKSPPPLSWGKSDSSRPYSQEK
# UniProt Q9Y6I9, 94-117: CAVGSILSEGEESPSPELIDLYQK
# UniProt P37837: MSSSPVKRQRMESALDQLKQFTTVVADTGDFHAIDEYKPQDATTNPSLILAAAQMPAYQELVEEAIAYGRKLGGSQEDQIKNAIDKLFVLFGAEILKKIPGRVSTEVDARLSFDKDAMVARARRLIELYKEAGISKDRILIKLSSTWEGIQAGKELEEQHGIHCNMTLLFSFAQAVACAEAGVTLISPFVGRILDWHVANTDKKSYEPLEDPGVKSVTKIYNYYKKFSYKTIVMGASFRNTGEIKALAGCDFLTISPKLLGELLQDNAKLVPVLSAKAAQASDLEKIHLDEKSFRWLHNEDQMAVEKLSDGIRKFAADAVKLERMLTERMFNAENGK
# UniProt O75410, 113-133: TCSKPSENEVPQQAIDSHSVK
# UniProt Q17R31, 207-226: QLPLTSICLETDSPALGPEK
# UniProt O75528, 243-263: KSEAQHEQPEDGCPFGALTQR
# The list shows a part of the results. The data scatter; read single values as rough.
# Columns and labels:
# [1] = compound: ClCC(=O)N[C@@H]1CCCc2ccccc12; assay: log2 mean competition ratio of IA-DTB cysteine labelling (DMSO/compound) (log2 ratio); higher = stronger cysteine engagement by compound; details: treatment time: 4 h, cell line lysate: HEK293T
# Procedure: (§1)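 IA-DTB competitive cysteine chemoproteomics in HEK293T RIPA lysate. Lysates were treated with compound 29 or 30 at 50 or 200 µM for 4 h, then IA-DTB (500 µM, 1 h), trypsin-digested, NeutrAvidin-enriched and analysed by diaPASEF. Competition ratio = intensity DMSO / intensity compound (n=4 treated, n=64 DMSO); binding: mean log2 CR ≥ 1 and p ≤ 0.05 plus QC filters. Target is the cysteine site.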
# [2] = compound: ClCC(=O)N[C@H]1CCCc2ccccc12; assay: as above; details: treatment time: 4 h, cell line lysate: HEK293T
# Procedure: as §1
Target,log2 mean competition ratio ([1]; 50 µM),log2 mean competition ratio ([1]; 200 µM),log2 mean competition ratio ([2]; 50 µM),log2 mean competition ratio ([2]; 200 µM)
TARBP2 C158 (UniProt Q15633),-0.0764,-0.256,-0.302,-0.276
TDRD7 C333 (UniProt Q8NHU6),0.0851,-0.203,0.396,0.0195
TANC1 C800 (UniProt Q9C0D5),0.33,-0.148,0.215,0.384
TBL2 C259 (UniProt Q9Y4P3),0.355,-0.0402,0.0623,-0.12
TAF9;TAF9B C121;(C121),0.498,0.235,0.344,0.223
THUMPD1 C31 (UniProt Q9NXG2),-0.148,0.0615,-0.176,0.1
TCF20 C498 (UniProt Q9UGU0),0.301,-0.172,-0.125,-0.291
TBL2 C95 (UniProt Q9Y4P3),0.178,0.178,-0.112,0.124
TES C294 (UniProt Q9UGI8),0.235,-0.228,0.251,-0.167
TEDC1 C87 (UniProt Q86SX3),0.147,0.224,0.18,0.283
TAF8 C80,0.317,0.013,0.139,-0.0365
TASOR2 C1125 (UniProt Q5VWN6),-0.0999,0.114,0.111,0.14
TARDBP C50,0.127,0.283,0.0666,0.139
TASOR C1260 (UniProt Q9UK61),-0.247,0.085,-0.805,-0.0725
TCEAL4 C34 (UniProt Q96EI5),-0.0593,-0.198,0.118,0.00368
TACO1 C112 (UniProt Q9BSH4),-0.295,0.302,-0.676,0.0925
TEX264 C94 (UniProt Q9Y6I9),0.0145,-0.114,0.00414,-0.333
TANC2 C224 (UniProt Q9HCD6),-0.0112,-0.0247,-0.0378,-0.000858
THOC5 C608 (UniProt Q13769),-0.024,-0.312,-0.279,-0.192
TALDO1 C250 (UniProt P37837),0.486,0.355,-0.0935,0.314
TBC1D22B C206 (UniProt Q9NU19),0.0558,0.107,-0.00843,0.132
TACC1 C467 (UniProt O75410),0.0117,0.184,0.199,0.161
TCP1 C397 (UniProt P17987),0.0268,-0.428,0.579,-0.377
THOC3 C134 (UniProt Q96J01),0.0131,-0.251,0.166,-0.451

Target,log2 mean competition ratio ([1]; 50 µM),log2 mean competition ratio ([1]; 200 µM),log2 mean competition ratio ([2]; 50 µM),log2 mean competition ratio ([2]; 200 µM)
TACC1 C114 (UniProt O75410),0.578,-0.0926,0.538,-0.0692
TAF6 C130 (UniProt P49848),-0.167,0.0955,-0.0492,0.136
TEPSIN C352,0.408,0.0967,0.239,0.456
TACC1 C715 (UniProt O75410),0.484,0.176,0.469,0.201
TELO2 C141 (UniProt Q9Y4R8),-0.352,0.333,0.123,0.298
TGFBR1 C86 (UniProt P36897),-0.0886,0.33,-0.255,-0.0155
TAF4B C160 (UniProt Q92750),0.0988,-0.0704,-0.334,-0.00122
SYP C87 (UniProt P08247),0.076,0.0994,0.218,0.0496
THOC1 C251 (UniProt Q96FV9),-0.193,-0.245,0.0206,-0.158
THADA C646 (UniProt Q6YHU6),-0.141,-0.0838,0.0376,0.0244
TAOK3 C795 (UniProt Q9H2K8),0.279,0.0383,0.183,-0.346
TET2 C784 (UniProt Q6N021),-0.0961,-0.0276,-0.246,-0.357
TANC1 C131 (UniProt Q9C0D5),0.0706,0.204,0.14,0.127
TATDN3 C214 (UniProt Q17R31),-0.635,0.815,-0.318,0.324
TACC3 C20,-0.0828,-0.0699,0.286,0.178
TASOR C1421 (UniProt Q9UK61),-0.136,-0.0718,-0.2,0.0322
TADA3 C255 (UniProt O75528),0.204,1.05,0.0649,0.87
TCF20 C868 (UniProt Q9UGU0),-0.128,0.154,-0.203,0.339
TET1 C1746 (UniProt Q8NFU7),-0.0598,-0.186,-0.319,-0.179
TBC1D8B C468 (UniProt Q0IIM8),0.137,0.00849,0.418,-0.00909
TELO2 C813 (UniProt Q9Y4R8),-0.123,0.289,0.0212,-0.0185
TBC1D12 C109 (UniProt O60347),-0.152,0.176,0.127,0.238
THAP12 C644 (UniProt O43422),0.119,0.15,-0.12,-0.0353
TAGLN2 C124 (UniProt P37802),0.0723,-0.236,0.357,-0.226

# A stretch of the results above, for reference:
Target,log2 mean competition ratio ([1]; 50 µM),log2 mean competition ratio ([1]; 200 µM),log2 mean competition ratio ([2]; 50 µM),log2 mean competition ratio ([2]; 200 µM)
TANC1 C131 (UniProt Q9C0D5),0.0706,0.204,0.14,0.127
TATDN3 C214 (UniProt Q17R31),-0.635,0.815,-0.318,0.324
TACC3 C20,-0.0828,-0.0699,0.286,0.178
TASOR C1421 (UniProt Q9UK61),-0.136,-0.0718,-0.2,0.0322
